# According to PubChem BioAssay AID540276 (National Center for Advancing Translational Sciences (NCATS), 2011):
# Screen size: about 300,000 compounds; about 5,400 (1.8%) were called active. Inconclusive means that the source gave no clear call. Such entries were picked first, then a sample of the others. Calls come from the whole dose curve; tested in HEK293 cells. Where the call is inconclusive, the potency comes from a doubtful curve fit.
# Test: qHTS for inhibitors of binding or entry into cells for Marburg Virus
# Conditions: Marburg virus pseudotyped entry inhibition, cell reporter; series mostly up to 37.8 µM
# Potency is the fitted concentration of half-maximal effect.
row,SMILES,Potency
1,C=CCN(c1ccccc1)S(=O)(=O)c1cccc(C(=O)Nc2cccc(C)n2)c1,"inconclusive: 7.94 µM [inhibitor, partial curve, poor fit]"
2,O=C(CCC1CCCC1)NC1CCCCC1,"inconclusive: 2.82 µM [activator, partial curve, poor fit]"
3,CN(CC(=O)Nc1ccc(F)cc1)CC(=O)N1CCCC1,"inconclusive: 7.08 µM [activator, full curve, poor fit]"
4,Clc1ccc(OC2CCN(Cc3nc(CC4CC4)no3)CC2)cc1,"inconclusive: 11.2 µM [inhibitor, partial curve, poor fit]"
5,O=S1(=O)c2ccccc2N=NN1Cc1ccc(Cl)c(Cl)c1,inactive
6,Cc1cc(C)c(NC(=O)C2CCN(C(=O)c3ccco3)CC2)c(C)c1,"inconclusive: 11.2 µM [activator, single point]"
7,O=C(CCCn1c(=O)c2sccc2n(Cc2cccc(Cl)c2)c1=O)NCc1ccc2c(c1)OCO2,"inconclusive: 5.62 µM [activator, single point]"
8,COc1cccc(C(=O)NN2C(=O)C3C4C=CC(O4)C3C2=O)c1 (stereo not drawn),inactive
9,CCOC(=O)CN1C(=O)c2cccnc2Oc2ccccc21,inactive
10,COc1cc(/C=C2\SC(=O)NC2=O)ccc1Oc1ccc([N+](=O)[O-])cn1,inactive
11,Cc1cc(N/N=C/c2ccccc2Cl)nc(NCc2ccccc2)n1,"inconclusive: 20 µM [inhibitor, single point]"
12,CSc1ncc(CN2CCCC(C(=O)c3cccc(Cl)c3)C2)cn1 (stereo not drawn),"inconclusive: 12.6 µM [inhibitor, single point]"
13,CCOc1cc(C2c3c(-c4ccccc4O)n[nH]c3C(=O)N2Cc2cccnc2)ccc1O (stereo not drawn),inactive
14,C=CCC1(CC=C)CCCN1C(=O)CC1C(=O)NCCN1Cc1cc(OC)cc(OC)c1 (stereo not drawn),"inconclusive: 8.91 µM [inhibitor, single point]"
15,CCN(c1ccc(NC(=O)CCNC(=O)c2ccco2)cc1)C(C)C,inactive
16,Cc1ccc(NC(=O)c2sc(-n3nc(C)c(Cc4ccc5c(c4)OCO5)c3C)nc2C)cc1C,inactive
17,CCC(C(=O)NCc1ccccc1Cl)n1nc(C)c2sc3ccccc3c2c1=O (stereo not drawn),inactive
18,CC(C)C[C@H]1COc2c(Cl)cccc2S(=O)(=O)N1Cc1cccc(Cl)c1,"inconclusive: 0.887 µM [inhibitor, full curve, poor fit]"
19,Cc1cccc(NC(=O)c2sc3nc(-c4ccccc4)cn3c2C)n1,"inconclusive: 23.1 µM [inhibitor, single point]"
20,O=C(O)CC[N+](=O)[O-],inactive
21,Cc1nn(Cc2ccccc2Cl)c2sc(C(=O)Nc3ccccc3N3CCOCC3)cc12,inactive
22,Cc1cccc(S(=O)(=O)c2c(N)n(/N=C/c3ccccc3)c3nc4ccccc4nc23)c1,"inconclusive: 1.64 µM [inhibitor, partial curve, poor fit]"
23,Nn1cnc2c(c1=O)C1(CCCCC1)Cc1ccccc1-2,"inconclusive: 35.5 µM [inhibitor, single point]"

row,SMILES,Potency
1,COc1ccc(C(=O)Nc2noc3ccccc23)cc1,"inconclusive: 14.1 µM [inhibitor, single point]"
2,CC(C)c1ccc(NCCC(=O)c2cccs2)cc1,"inconclusive: 14.1 µM [activator, single point]"
3,CCOC(=O)C1(CCc2ccccc2)CCN(C(=O)CN2CCOC2=O)CC1,"inconclusive: 35.5 µM [activator, single point]"
4,CCOc1ccc(S(=O)(=O)N2CCCC(C(=O)N3CCN(CC)CC3)C2)cc1Cl (stereo not drawn),"inconclusive: 10 µM [inhibitor, partial curve, poor fit]"
5,O=C(NCCc1nc2ccccc2n1CCCOc1ccc(Cl)cc1)C1CCCCC1,"inconclusive: 31.6 µM [inhibitor, single point]"
6,Cc1ccc(C(O)(C(=O)NNc2ccc3ccccc3n2)c2ccc(C)cc2)cc1,"inconclusive: 35.5 µM [inhibitor, single point]"
7,O=C(O)c1ccc(NC(=S)NC(=O)c2ccc(-c3ccccc3)cc2)cc1,"inconclusive: 35.5 µM [activator, single point]"
8,CCN(CC)CCOC(=O)c1ccc(NC(=O)CCCN2C(=O)S/C(=C/c3ccc(OC)cc3)C2=S)cc1,"inconclusive: 7.08 µM [inhibitor, full curve, poor fit]"
9,O=c1[nH]c(=O)n(Cc2ccc(F)cc2)c(O)c1/C=N/Nc1ccccc1,"inconclusive: 2.24 µM [inhibitor, full curve, poor fit]"
10,CC(=O)/C(N=Nc1ccc2c(c1)OCO2)=C(\C)O,"inconclusive: 1.26 µM [activator, partial curve, poor fit]"
11,CCCCNC(=O)COc1ccccc1[N+](=O)[O-],inactive
12,Cc1cc(C(=O)COC(=O)c2nccnc2N)c(C)n1C,"inconclusive: 6.31 µM [inhibitor, single point]"
13,CCOc1ccc(CCNC(=O)Cn2nc(CC)n3c(cc4sccc43)c2=O)cc1,inactive
14,Cc1cc(NC(=O)c2ccc(Cl)cc2)c(C)cc1O,"inconclusive: 10 µM [activator, partial curve, poor fit]"
15,C/C(=N\NC(=O)c1cccc(S(=O)(=O)N2CCCCC2)c1)c1ccc(C)o1,inactive
16,O=C1/C(=C/c2ccsc2)N2CCC1CC2,"inconclusive: 5.01 µM [activator, single point]"
17,CC1(C)CC(OC(=O)c2ccco2)CC(C)(C)N1O,inactive
18,COc1cccc(NC(=O)Cn2c(=O)n(CCCCC(=O)NCCc3ccccc3)c(=O)c3ccccc32)c1,inactive
19,O=C(c1ccccc1)N1CCN(C(=O)c2nn3c(C(F)(F)F)cc(-c4ccccc4)nc3c2Br)CC1,"inconclusive: 11.2 µM [inhibitor, partial curve]"
20,CCOC(=O)C1=C(CN2CCN(c3cc(C)ccc3C)CC2)NC(=O)NC1c1ccc(Cl)cc1 (stereo not drawn),"inconclusive: 17.8 µM [inhibitor, single point]"
21,CCS(=O)(=O)N1CCc2cc(C(=O)Nc3cc(C(F)(F)F)ccc3Cl)ccc21,inactive
22,CSc1ccccc1C(=O)N1CCC2(CC1)CC(=O)c1ccccc1O2,inactive
23,COc1cccc(NC(=O)Cc2nc(-c3ccccc3)sc2-c2ccc(C)cc2)c1,"inconclusive: 35.5 µM [inhibitor, partial curve, poor fit]"

row,SMILES,Potency
1,COc1ccc(Cn2c(=O)oc3ccc(C)cc32)cc1OC,"inconclusive: 1.16 µM [inhibitor, full curve, poor fit]"
2,CCCCNCCOCCSc1ccc(Cl)cc1,"inconclusive: 29.1 µM [inhibitor, single point]"
3,CC(C)N(CCC(=O)c1ccc2ccccc2c1)Cc1ccccc1,active: 12.6 µM
4,CCOc1ccccc1C1C2=C(COC2=O)Nc2cc3c(cc21)OCO3 (stereo not drawn),"inconclusive: 5.62 µM [inhibitor, partial curve, poor fit]"
5,COc1ccc(C)cc1NS(=O)(=O)c1ccc2[nH]c(=O)c(=O)[nH]c2c1,"inconclusive: 6.31 µM [activator, single point]"
6,COc1ccc(CNC(=O)CCc2nnc3n(CC(C)C)c(=O)c4ccccc4n23)cc1,inactive
7,CC(C)Sc1nnc([C@@H]2CCCN2C(=O)OC(C)(C)C)o1,"inconclusive: 14.1 µM [activator, partial curve, poor fit]"
8,Cc1ccc(C(O)(C(=O)NN(C(=O)c2ccccc2)c2ccccc2)c2ccc(C)cc2)cc1,"inconclusive: 0.501 µM [inhibitor, partial curve, poor fit]"
9,CC(C)(C)c1ccc(C(=O)Nc2ccc(C(=O)N3CCCC3)cc2)cc1,"inconclusive: 35.5 µM [inhibitor, single point]"
10,Cc1ccc(C)c(CN2C(=O)c3ccccc3S(=O)(=O)c3ccc(C(=O)N4CCN(c5ccccc5F)CC4)cc32)c1,"inconclusive: 35.5 µM [inhibitor, single point]"
11,COc1ccc(N2C(=O)c3ccccc3NC23CCC(C)CC3)cc1 (stereo not drawn),inactive
12,Cc1nc(CSc2nsc(/C=C/N(C)C)c2C#N)cs1,"inconclusive: 11.2 µM [activator, single point]"
13,COc1ccc(OCC(=O)N2CCN(C(=O)c3ccc(F)cc3)CC2)cc1,inactive
14,COc1ccc(-n2cc(C(=O)c3ccccc3O)cn2)cc1,"inconclusive: 3.98 µM [inhibitor, full curve, poor fit]"
15,OCCC1CN(Cc2ccccc2-c2ccco2)CCN1Cc1ccccc1 (stereo not drawn),"inconclusive: 11.2 µM [inhibitor, partial curve, poor fit]"
16,C/C(=N\NC(=O)c1cc(Br)ccc1O)c1cccs1,"inconclusive: 35.5 µM [activator, partial curve, poor fit]"
17,CCCS(=O)(=O)N1CCC(C(=O)N2CCCC2)CC1,"inconclusive: 2.82 µM [activator, full curve, poor fit]"
18,O=C(Nc1ccc(F)c(Cl)c1)c1ccc2c(=O)n3c(nc2c1)CCCCC3,"inconclusive: 32.6 µM [inhibitor, single point]"
19,O=C(CSc1nc(C2CC2)nc2ccccc12)N1CCCCC1,"inconclusive: 2.82 µM [inhibitor, full curve, poor fit]"
20,Cc1cccc(C)c1OC(=O)CSc1nnc(-c2cccs2)o1,inactive
21,Cc1cc(C(=O)NC2CCCc3ccccc32)ccc1[N+](=O)[O-] (stereo not drawn),"inconclusive: 11.2 µM [inhibitor, partial curve, poor fit]"
22,CCOC(=O)C1=C(C)NC(=S)NC1c1ccco1 (stereo not drawn),inactive

# A portion from the list above:
row,SMILES,Potency
14,COc1ccc(-n2cc(C(=O)c3ccccc3O)cn2)cc1,"inconclusive: 3.98 µM [inhibitor, full curve, poor fit]"
15,OCCC1CN(Cc2ccccc2-c2ccco2)CCN1Cc1ccccc1 (stereo not drawn),"inconclusive: 11.2 µM [inhibitor, partial curve, poor fit]"
